Measurements reported in PubChem BioAssay AID1224829 (NIAID, 2016).

- Test: 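Genes needed for LPS-driven NF-kappaB p65 nuclear entry in mouse macrophages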 (follow-up of hits)
- Cells: mouse RAW264.7 G9 macrophage reporter cells
- Knock-down reagent: single siRNA against mouse genes, 100 nM
- Time to read-out: 2 days of siRNA knock-down, then 40 min of LPS before fixing
- Treatment: LPS (Salmonella minnesota R595) at 10 ng/ml
- Detection: 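High-content images after 40 min LPS exposure; GFP-p65 nucleus to surrounding ring signal ratio, normalised to plate median and non-targeting control wells, expressed as z-score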
- Direction: p65 translocation z-score and gene median z-score, per vendor: higher = more nuclear NF-kappaB p65 after LPS
- Call rule: 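Active means the replicate-mean z-score lies beyond plus or minus 2, in either direction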
- Meaning of the calls: active = changed p65 translocation (either direction); inactive = no clear change
Here is one part, drawn at random, of about 3,800 reagents tested. 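Calls cover raised and lowered translocation; gene median uses one vendor's three siRNAs; qiagen siRNAs acted more weakly than ambion siRNAs.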 The numbers tell different reagents against one gene apart. Reagent sequences are not shown.

gene	reagent no.	siRNA vendor or control pool	p65 translocation z-score, replicate mean	p65 translocation z-score, replicate 1	p65 translocation z-score, replicate 2	gene median z-score, per vendor	activity call
Tnfrsf13c	1	ambion single siRNA	0.919	0.897	0.94	0.919	inactive
Tnfrsf13c	2	ambion single siRNA	2.71	2.95	2.48	0.919	active
Tnfrsf13c	3	ambion single siRNA	-1.04	-1.44	-0.635	0.919	inactive
Tnfrsf13c	4	qiagen single siRNA	-0.225	0.992	-1.44	-0.225	inactive
Tnfrsf13c	5	qiagen single siRNA	-2.14	-2.4	-1.88	-0.225	active
Tnfrsf13c	6	qiagen single siRNA	2.48	1.86	3.09	-0.225	active
Or1j4	1	ambion single siRNA	-0.217	-1.77	1.34	-2.24	inactive
Or1j4	2	ambion single siRNA	-2.2	-1.69	-2.71	-2.24	active
Or1j4	3	ambion single siRNA	-3.91	-3.86	-3.96	-2.24	active
Or1j4	4	qiagen single siRNA	-0.209	-0.612	0.193	-0.494	inactive
Or1j4	5	qiagen single siRNA	-1.04	-1.51	-0.566	-0.494	inactive
Or1j4	6	qiagen single siRNA	0.2	-0.422	0.822	-0.494	inactive
Shbg	1	ambion single siRNA	-1.48	-1.17	-1.79	-1.48	inactive
Shbg	2	ambion single siRNA	-2.85	-2.39	-3.3	-1.48	active
Shbg	3	ambion single siRNA	-0.329	-0.362	-0.296	-1.48	inactive
Shbg	4	qiagen single siRNA	0.14	-0.982	1.26	-0.192	inactive
Shbg	5	qiagen single siRNA	0.809	0.599	1.02	-0.192	inactive
Shbg	6	qiagen single siRNA	-2.32	-1.29	-3.36	-0.192	active
Vmn1r231	1	ambion single siRNA	-2.79	-2.74	-2.84	-3.71	active
Vmn1r231	2	ambion single siRNA	-3.71	-3.3	-4.12	-3.71	active
Vmn1r231	3	ambion single siRNA	-6.36	-6.91	-5.82	-3.71	active
Vmn1r231	4	qiagen single siRNA	0.0478	-0.489	0.584	-0.513	inactive
Vmn1r231	5	qiagen single siRNA	-4.89	-5.13	-4.66	-0.513	active
Vmn1r231	6	qiagen single siRNA	-0.316	-0.0965	-0.536	-0.513	inactive
Rpl37a	1	ambion single siRNA	-0.616	0.281	-1.51	-1.51	inactive
Rpl37a	2	ambion single siRNA	-1.63	0.792	-4.05	-1.51	inactive
Rpl37a	3	ambion single siRNA	-1.65	-1.65		-1.51	inactive
Rpl37a	4	qiagen single siRNA	-1.42	1.46	-4.3	-4.12	inactive
Rpl37a	5	qiagen single siRNA	-2.71	-1.31	-4.12	-4.12	active
Rpl37a	6	qiagen single siRNA	-6.61	-6.61		-4.12	active
Was	1	ambion single siRNA	-1.38	-1.14	-1.63	-1.25	inactive
Was	2	ambion single siRNA	-1.21	-1.36	-1.06	-1.25	inactive
Was	3	ambion single siRNA	-1.74	-2.73	-0.748	-1.25	inactive
Was	4	qiagen single siRNA	-1.35	-2.85	0.162	-0.85	inactive
Was	5	qiagen single siRNA	-0.0204	0.369	-0.41	-0.85	inactive
Was	6	qiagen single siRNA	-2.18	-1.29	-3.08	-0.85	active
Iqcc	1	ambion single siRNA	2.01	2.75	1.28	-2.42	active
Iqcc	2	ambion single siRNA	-2.42	-2.27	-2.57	-2.42	active
Iqcc	3	ambion single siRNA	-5.27	-5.08	-5.47	-2.42	active
Dtx3	1	ambion single siRNA	-0.606	-0.0217	-1.19	-1.19	inactive
Dtx3	2	ambion single siRNA	-0.65	-0.65		-1.19	inactive
Dtx3	3	ambion single siRNA	-2.83	-3.25	-2.41	-1.19	active
Dtx3	4	qiagen single siRNA	-0.0222	-0.535	0.491	-0.48	inactive
Dtx3	5	qiagen single siRNA	-0.425	-0.425		-0.48	inactive
Dtx3	6	qiagen single siRNA	-3.12	-3.12		-0.48	active
Tmem18	1	ambion single siRNA	-4.01	-5.59	-2.44	-2.81	active
Tmem18	2	ambion single siRNA	1.5	2.45	0.547	-2.81	inactive
Tmem18	3	ambion single siRNA	-4.23	-5.28	-3.19	-2.81	active
Tmem18	4	qiagen single siRNA	0.955	0.369	1.54	-0.356	inactive
Tmem18	5	qiagen single siRNA	-1.76	-1.74	-1.78	-0.356	inactive
Tmem18	6	qiagen single siRNA	-0.296	0.489	-1.08	-0.356	inactive
Ptpn13	1	ambion single siRNA	6.58	9.41	3.74	-2.81	active
Ptpn13	2	ambion single siRNA	-3.21	-3.06	-3.36	-2.81	active
Ptpn13	3	ambion single siRNA	-3.44	-4.33	-2.55	-2.81	active
Ptpn13	4	qiagen single siRNA	0.175	0.502	-0.152	0.0397	inactive
Ptpn13	5	qiagen single siRNA	0.79	0.232	1.35	0.0397	inactive
Ptpn13	6	qiagen single siRNA	-2.43	-1.39	-3.47	0.0397	active
Or5d36	1	ambion single siRNA	-1.63	-1.55	-1.71	-1.61	inactive
Or5d36	2	ambion single siRNA	-1.83	-2.35	-1.31	-1.61	inactive
Or5d36	3	ambion single siRNA	-1.61	-1.61		-1.61	inactive
Or5d36	4	qiagen single siRNA	0.191	2.27	-1.89	-1.5	inactive
Or5d36	5	qiagen single siRNA	-0.987	-0.394	-1.58	-1.5	inactive
Or5d36	6	qiagen single siRNA	-2.26	-3.09	-1.42	-1.5	active
Or4c112	1	ambion single siRNA	-1.46	-0.877	-2.04	-2.13	inactive
Or4c112	2	ambion single siRNA	-3.81	-3.65	-3.97	-2.13	active
Or4c112	3	ambion single siRNA	-2.13	-2.13		-2.13	active
Or4c112	4	qiagen single siRNA	1.09	-0.773	2.96	-0.11	inactive
Or4c112	5	qiagen single siRNA	-1.01	-1.91	-0.11	-0.11	inactive
Or4c112	6	qiagen single siRNA	0.491	0.491		-0.11	inactive

Laid out differently: 5 of the entries above
gene | reagent no. | siRNA vendor or control pool | p65 translocation z-score, replicate mean | p65 translocation z-score, replicate 1 | p65 translocation z-score, replicate 2 | gene median z-score, per vendor | activity call
Vmn1r231 | 2 | ambion single siRNA | -3.71 | -3.3 | -4.12 | -3.71 | active
Vmn1r231 | 3 | ambion single siRNA | -6.36 | -6.91 | -5.82 | -3.71 | active
Vmn1r231 | 4 | qiagen single siRNA | 0.0478 | -0.489 | 0.584 | -0.513 | inactive
Vmn1r231 | 5 | qiagen single siRNA | -4.89 | -5.13 | -4.66 | -0.513 | active
Vmn1r231 | 6 | qiagen single siRNA | -0.316 | -0.0965 | -0.536 | -0.513 | inactive
